Assay results from PubChem BioAssay AID651768 (National Center for Advancing Translational Sciences (NCATS), 2012).
In all, about 360,000 compounds went through this assay and about 1,700 (0.47%) were called active. The shares of active, inactive and inconclusive entries below differ from those in the screen. The call rests on the fitted dose curve; in most records, active means well fitted inhibition curve with a large enough effect; inconclusive means small, poorly fitted or top-dose-only effect; inactive means no such curve, though single readings can be large or run the other way. Potencies of inconclusive entries are doubtful fits and often do not repeat.

By UniProt entry, the sequences of proteins in these tests, tags left out.
UniProt Q14191, whole entry, looked up: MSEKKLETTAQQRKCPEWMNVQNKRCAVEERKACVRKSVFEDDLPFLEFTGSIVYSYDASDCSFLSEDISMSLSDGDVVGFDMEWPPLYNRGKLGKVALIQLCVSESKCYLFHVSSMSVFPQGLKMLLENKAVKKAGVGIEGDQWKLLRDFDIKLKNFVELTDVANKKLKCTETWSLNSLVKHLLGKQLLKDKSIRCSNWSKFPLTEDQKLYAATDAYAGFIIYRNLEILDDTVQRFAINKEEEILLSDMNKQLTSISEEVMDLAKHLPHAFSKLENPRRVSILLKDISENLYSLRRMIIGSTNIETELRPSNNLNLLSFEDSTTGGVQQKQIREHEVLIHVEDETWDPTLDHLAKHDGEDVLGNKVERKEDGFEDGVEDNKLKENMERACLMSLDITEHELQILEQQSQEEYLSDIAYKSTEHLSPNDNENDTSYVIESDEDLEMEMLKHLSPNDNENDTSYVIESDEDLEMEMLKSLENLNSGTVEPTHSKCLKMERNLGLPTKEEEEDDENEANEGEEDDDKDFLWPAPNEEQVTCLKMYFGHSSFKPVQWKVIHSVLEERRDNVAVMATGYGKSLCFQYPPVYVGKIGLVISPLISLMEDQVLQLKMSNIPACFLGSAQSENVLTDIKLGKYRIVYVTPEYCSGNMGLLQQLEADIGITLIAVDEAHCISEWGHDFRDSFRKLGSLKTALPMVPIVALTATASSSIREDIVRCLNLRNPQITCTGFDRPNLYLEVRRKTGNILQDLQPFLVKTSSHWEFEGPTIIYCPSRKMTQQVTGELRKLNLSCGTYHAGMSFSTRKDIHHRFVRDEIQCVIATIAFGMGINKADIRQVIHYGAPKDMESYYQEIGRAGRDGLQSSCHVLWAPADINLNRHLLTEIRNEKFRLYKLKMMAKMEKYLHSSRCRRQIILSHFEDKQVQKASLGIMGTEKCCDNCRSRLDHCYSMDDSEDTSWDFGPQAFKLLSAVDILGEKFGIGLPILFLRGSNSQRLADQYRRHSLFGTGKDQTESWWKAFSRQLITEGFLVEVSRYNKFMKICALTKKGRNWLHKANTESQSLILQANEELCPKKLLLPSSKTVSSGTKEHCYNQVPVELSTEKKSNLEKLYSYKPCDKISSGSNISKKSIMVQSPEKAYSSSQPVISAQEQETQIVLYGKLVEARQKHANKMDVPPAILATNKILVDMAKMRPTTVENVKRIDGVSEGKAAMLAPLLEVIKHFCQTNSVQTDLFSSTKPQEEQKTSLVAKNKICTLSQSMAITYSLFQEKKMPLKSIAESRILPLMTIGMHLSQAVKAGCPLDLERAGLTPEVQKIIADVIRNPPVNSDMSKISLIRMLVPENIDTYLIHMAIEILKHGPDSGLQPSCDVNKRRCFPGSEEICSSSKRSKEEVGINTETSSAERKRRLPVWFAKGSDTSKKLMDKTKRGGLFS

Biological target: Bifunctional 3'-5' exonuclease/ATP-dependent helicase WRN (Homo sapiens) (UniProt Q14191)
Experiment: qHTS for Inhibitors of WRN Helicase; further: nearly all actives have a fitted effect of over 55% in size
Settings: WRN helicase unwinding, fluorescent forked duplex, kinetic; activity change, negative = inhibition: at 114 µM (top of the series) unless noted
Method in brief: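 WRN at 20 nM final preincubated with compound 15 min at room temperature; reaction started with 100 nM fluorophore/quencher forked duplex oligonucleotide and 2 mM ATP final. Unwinding followed kinetically by red fluorescence (ex 525, em 598 nm).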
On the % scale 0 is the no-effect control and ±100 the full control effect; potency means the concentration at half of the fitted maximal effect.

Structure (SMILES)	Potency	activity change, negative = inhibition
Cc1cc(NS(=O)(=O)c2ccc(NC(=S)NC(=O)/C=C/c3ccccc3)cc2)no1	inconclusive: 3.55 µM [inhibitor, full curve, poor fit]	–
C=CCN1C(=O)CS/C1=C(\C#N)S(=O)(=O)c1ccc(C)cc1	inconclusive: 56.2 µM [inhibitor, partial curve]	–
O=C(/C=C/c1ccc(Br)cc1)c1ccco1	inconclusive: 31.6 µM [inhibitor, single point]	–
Cc1ccc(NC(=O)CCNC(=O)c2ccc(Cl)cc2)nc1	inactive	–
CC(C)n1c(=O)[nH]c2ccccc21	inactive	–
C/C(=C\c1ccco1)C1C(C#N)=C(N)Oc2n[nH]c(-c3ccccc3)c21 (configuration not stated)	inconclusive: 14.1 µM [inhibitor, full curve, poor fit]	–
CCCSc1nnc(NC(=O)CSc2sc3c(O)cc(=O)[nH]c3c2C#N)s1	active: 10 µM	–
CCc1nnc(N2CCN(c3ncnc4c3oc3ccccc34)CC2)s1	inconclusive: 17.8 µM [inhibitor, full curve, poor fit]	–
O=C(/C=C/Sc1ccccc1)c1ccccc1	inconclusive: 56.2 µM [inhibitor, partial curve]	–
COc1cccc(-n2ccnc2SCC(=O)Nc2ccccc2)c1	inconclusive: 89.1 µM [inhibitor, single point]	–
CC1=CN2C(=N)/C(=C/c3ccc([N+](=O)[O-])o3)C(=O)N=C2S1	active: 31.6 µM	–
COc1ccccc1OCCCCCCN1CCOCC1	inactive	–
Cc1ccc(CNC(=O)CN(C(=O)C2(C)CC(=O)N=C3C=CC=CN32)c2ccc(F)cc2)cc1 (configuration not stated)	inactive	–
Cc1ccc(-c2cc(C(=O)Nc3ccccc3C(N)=O)c3ccccc3n2)o1	inconclusive: 50.1 µM [inhibitor, partial curve]	–
CCc1nnc(NS(=O)(=O)c2ccc(N/C=C\C(=O)c3ccc4ccccc4c3)cc2)s1	active: 50.1 µM	–
Cc1cc2cc(C=C(C#N)C#N)c(Cl)nc2cc1C	inconclusive: 44.7 µM [inhibitor, partial curve]	–
CC(C)C[C@@H](CO)N1CCN(Cc2ccc([N+](=O)[O-])cc2)CCC1=O	inactive	–
O=C(NC(=S)Nc1ccc(N2CCOCC2)c(Cl)c1)C(c1ccccc1)c1ccccc1	inactive	–
O=C(NNC(=O)c1cnccn1)c1ccc(Cl)cc1	inconclusive: 100 µM [inhibitor, single point]	–
CCn1c2ccc(C)cc2c2n[nH]c(=S)nc21	inconclusive: 11.2 µM [inhibitor, full curve]	–
Cc1cc(N2O[C@]34C=C[C@]25C[C@@H](O)CC[C@]5(C)C3CC[C@]2(C)[C@@H]([C@H](C)/C=C/[C@H](C)C(C)C)CC[C@H]24)no1 (some centres not stated)	inactive	–
C(=C\c1ccc2nncn2c1)/c1ccccc1	inactive	–
Oc1c(Cl)cc(Cl)cc1C=Nc1ccc2c(c1)OCCO2	inconclusive: 50.1 µM [inhibitor, partial curve, poor fit]	–
Cc1nc(NCc2ccccc2)sc1C(=O)Nc1ccccc1	inconclusive: 56.2 µM [inhibitor, partial curve, poor fit]	–

Structure (SMILES)	Potency	activity change, negative = inhibition
CC1=Nc2ccccc2/C1=C/c1c(N)n2c(S(=O)(=O)CC(C)C)nsc2nc1=O	inconclusive: 8.91 µM [inhibitor, partial curve]	–
Cc1cc(C)c(S(=O)(=O)/N=C2/C=C(Sc3ncn[nH]3)C(=O)c3ccccc32)cc1C	active: 22.4 µM	–
NC(=O)Cc1c[nH]c2cccc(O)c12	inactive	–
CCCN(C(=O)c1cccc(-n2cccc2)c1)c1c(N)n(Cc2ccccc2)c(=O)[nH]c1=O	active: 50.1 µM	–
CC(=O)c1c(C)nc(-c2ccccc2)nc1NC(=O)Cc1ccccc1	inconclusive: 79.4 µM [inhibitor, single point]	–
CCCCCCc1cc2cc(S(=O)(=O)c3ccc(Cl)cc3)c(=O)oc2cc1O	inactive	–
O=C(CN(C(=O)c1ccc(Cl)cc1)C1CCCCC1)Nc1ccc(Cl)c([N+](=O)[O-])c1	inconclusive: 39.8 µM [inhibitor, single point]	–
COc1cc(/C=C2\SC(=N)N(c3ccc(F)cc3)C2=O)ccc1O	inactive	–
O=C1C=CCC(/C=C/c2ccccc2)O1 (configuration not stated)	inconclusive: 44.7 µM [inhibitor, partial curve]	–
O=C1NC(=S)SC1=Cc1ccccc1Br	inconclusive: 56.2 µM [inhibitor, partial curve]	–
O=C(CCN1CCCCC1)c1ccc2c(c1)OCO2	inconclusive: 50.1 µM [inhibitor, partial curve]	–
O=c1c2ccccc2sn1-c1ccccc1	active: 50.1 µM	–
Cc1cccc(C)c1-n1cccc1/C=C1\SC(=S)N(c2cccc(C(=O)O)c2)C1=O	inconclusive: 79.4 µM [inhibitor, partial curve]	–
O=C(Nc1ccc2c(c1)OCO2)C1CCN(C(=O)CSc2ncnc3ccccc23)CC1	–	inactive: -7.1% [at 11.6 µM]
CCOc1ccc(N2CC(C(=O)NCCN3C(=O)S/C(=C/c4cccnc4)C3=O)CC2=O)cc1 (configuration not stated)	inactive	–
CC1=C(C(=O)O)N2C(=O)C(NC(=O)c3ccccc3Cl)C2SC1 (configuration not stated)	inactive	–
COc1cc(/C=N/NC(=O)c2ccncc2)ccc1OCC(=O)Nc1cccc([N+](=O)[O-])c1	inconclusive: 7.08 µM [inhibitor, partial curve, poor fit]	–
O=C(O)CCC(=O)N1CCc2cc(S(=O)(=O)N3CC=C(c4ccccc4)CC3)ccc21	inactive	–
O=C(COc1ccc2c(c1)oc(=O)c1ccccc12)N[C@@H](Cc1c[nH]c2ccccc12)C(=O)O	inactive	–
O=C(Oc1ccccc1C(=S)N1CCOCC1)c1ccccc1	inconclusive: 89.1 µM [inhibitor, single point]	–
O=C(O)c1cc(-c2ccc(/C=N/N3C(=O)C4C5C=CC(C6CC56)C4C3=O)o2)ccc1Cl (configuration not stated)	–	inactive: -1.09% [at 11.6 µM]
COc1ccc(CN2CCN(c3nc4ccccc4s3)CC2)cc1	inactive	–
CCOC(=O)c1c(N)sc(N)c1C(=O)OCC	inconclusive: 79.4 µM [inhibitor, partial curve]	–

Two entries picked at random from those above, as already listed:
Structure (SMILES)	Potency	activity change, negative = inhibition
O=C(O)c1cc(-c2ccc(/C=N/N3C(=O)C4C5C=CC(C6CC56)C4C3=O)o2)ccc1Cl (configuration not stated)	–	inactive: -1.09% [at 11.6 µM]
O=C(Nc1ccc2c(c1)OCO2)C1CCN(C(=O)CSc2ncnc3ccccc23)CC1	–	inactive: -7.1% [at 11.6 µM]
